{"source": "PubChem BioAssay AID1159578, Peter MacCallum Cancer Centre | 2015", "assay": "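Knock-downs that alter how fast lymphatic endothelial cells migrate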 (primary screen)", "system": "human lymphatic endothelial cells", "reagent": "siRNA pool against human genes, 40 nM", "duration": "48 h after transfection", "read-out": "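High-content imaging of dye-stained cells in a scratch assay measures filled wound area and nuclei per well; duplicate means given as ratio to mock and robust z-score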", "reading the numbers": "migration robust z-score: higher = faster migration into the scratch; nuclei per well: higher = more cells in the well", "hit rule": "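Migration changed when robust z exceeds 2 or falls below -2 and mean nuclei number is at least 3300; otherwise not called changed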", "meaning of the calls": "active = migration changed; inactive = no migration change, or too few cells", "note": "The deposit covers about 18,000 reagents; shown is an unselected part. Over the whole deposit, about 1,030 (5.7%) got an active call. 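Inactive calls also include pools with fewer than 3300 nuclei, whose migration was not assessed.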 Raw values vary from plate to plate and are shown uncorrected. A number with no mark means an inactive call. The numbers tell different reagents against one gene apart. Not all columns of the deposit are shown."}
The opening 2 entries as a preview:
{"gene": "ZNHIT1 (zinc finger HIT-type containing 1)", "reagent no.": 1, "migration robust z-score": 1, "migration class with cell-count check": "migration z between -2 and 2; enough cells", "nuclei per well, duplicate mean": 5864}
{"gene": "ETV4 (ETS variant transcription factor 4)", "reagent no.": 1, "migration robust z-score": -0.36, "migration class with cell-count check": "migration z between -2 and 2; enough cells", "nuclei per well, duplicate mean": 4426}

The list itself, from the first entry:
{"gene": "ZNHIT1 (zinc finger HIT-type containing 1)", "reagent no.": 1, "migration robust z-score": 1, "migration class with cell-count check": "migration z between -2 and 2; enough cells", "nuclei per well, duplicate mean": 5864}
{"gene": "ETV4 (ETS variant transcription factor 4)", "reagent no.": 1, "migration robust z-score": -0.36, "migration class with cell-count check": "migration z between -2 and 2; enough cells", "nuclei per well, duplicate mean": 4426}
{"gene": "COL8A2 (collagen type VIII alpha 2 chain)", "reagent no.": 1, "migration robust z-score": -0.86, "migration class with cell-count check": "migration z between -2 and 2; enough cells", "nuclei per well, duplicate mean": 4938}
{"gene": "GMEB2 (glucocorticoid modulatory element binding protein 2)", "reagent no.": 1, "migration robust z-score": 0.39, "migration class with cell-count check": "migration z between -2 and 2; enough cells", "nuclei per well, duplicate mean": 5204}
{"gene": "SLC17A6", "reagent no.": 1, "migration robust z-score": 1.12, "migration class with cell-count check": "migration z between -2 and 2; enough cells", "nuclei per well, duplicate mean": 5424}
{"gene": "CLXN (calaxin)", "reagent no.": 1, "migration robust z-score": -0.84, "migration class with cell-count check": "migration z between -2 and 2; enough cells", "nuclei per well, duplicate mean": 6995}
{"gene": "FAM217B (family with sequence similarity 217 member B)", "reagent no.": 1, "migration robust z-score": -0.23, "migration class with cell-count check": "migration z between -2 and 2; enough cells", "nuclei per well, duplicate mean": 6866}
{"gene": "PLIN2 (perilipin 2)", "reagent no.": 1, "migration robust z-score": -1.07, "migration class with cell-count check": "migration z between -2 and 2; enough cells", "nuclei per well, duplicate mean": 5888}
{"gene": "ZNF550 (zinc finger protein 550)", "reagent no.": 1, "migration robust z-score": -0.86, "migration class with cell-count check": "migration z between -2 and 2; enough cells", "nuclei per well, duplicate mean": 5181}
{"gene": "B2M (beta-2-microglobulin)", "reagent no.": 1, "migration robust z-score": -0.2, "migration class with cell-count check": "migration z between -2 and 2; enough cells", "nuclei per well, duplicate mean": 4582}
{"gene": "BAZ2B (bromodomain adjacent to zinc finger domain 2B)", "reagent no.": 1, "migration robust z-score": -0.24, "migration class with cell-count check": "migration z between -2 and 2; enough cells", "nuclei per well, duplicate mean": 5330}
{"gene": "SPANXB1 (SPANX family member B1)", "reagent no.": 1, "migration robust z-score": -0.02, "migration class with cell-count check": "migration z between -2 and 2; enough cells", "nuclei per well, duplicate mean": 5723}
{"gene": "SPANXB1 (SPANX family member B1)", "reagent no.": 2, "migration robust z-score": -1.14, "migration class with cell-count check": "migration z between -2 and 2; enough cells", "nuclei per well, duplicate mean": 4120}
{"gene": "TTC39C (tetratricopeptide repeat domain 39C)", "reagent no.": 1, "migration robust z-score": -0.12, "migration class with cell-count check": "migration z between -2 and 2; enough cells", "nuclei per well, duplicate mean": 5812}
{"gene": "TSSC4 (tumor suppressing subtransferable candidate 4)", "reagent no.": 1, "migration robust z-score": -0.21, "migration class with cell-count check": "migration z between -2 and 2; enough cells", "nuclei per well, duplicate mean": 5851}
{"gene": "PCDHGA5 (protocadherin gamma subfamily A, 5)", "reagent no.": 1, "migration robust z-score": 0.34, "migration class with cell-count check": "migration z between -2 and 2; enough cells", "nuclei per well, duplicate mean": 5634}
{"gene": "INO80 (INO80 complex ATPase subunit)", "reagent no.": 1, "migration robust z-score": -0.88, "migration class with cell-count check": "migration z between -2 and 2; enough cells", "nuclei per well, duplicate mean": 5285}
{"gene": "GMPPA (GDP-mannose pyrophosphorylase A)", "reagent no.": 1, "migration robust z-score": 0.03, "migration class with cell-count check": "migration z between -2 and 2; enough cells", "nuclei per well, duplicate mean": 5372}
{"gene": "SIM1 (SIM bHLH transcription factor 1)", "reagent no.": 1, "migration robust z-score": -0.52, "migration class with cell-count check": "migration z between -2 and 2; enough cells", "nuclei per well, duplicate mean": 5158}
{"gene": "ERGIC3 (ERGIC and golgi 3)", "reagent no.": 1, "migration robust z-score": "-2.1 (active)", "migration class with cell-count check": "migration z below -2; enough cells", "nuclei per well, duplicate mean": 5814}
{"gene": "CCDC92 (coiled-coil domain containing 92)", "reagent no.": 1, "migration robust z-score": -0.77, "migration class with cell-count check": "migration z between -2 and 2; enough cells", "nuclei per well, duplicate mean": 5924}
{"gene": "ZSWIM3 (zinc finger SWIM-type containing 3)", "reagent no.": 1, "migration robust z-score": -0.82, "migration class with cell-count check": "migration z between -2 and 2; enough cells", "nuclei per well, duplicate mean": 5066}
{"gene": "MRPL52 (mitochondrial ribosomal protein L52)", "reagent no.": 1, "migration robust z-score": -0.04, "migration class with cell-count check": "migration z between -2 and 2; enough cells", "nuclei per well, duplicate mean": 5840}
{"gene": "XKR4 (XK related 4)", "reagent no.": 1, "migration robust z-score": -1.67, "migration class with cell-count check": "migration z between -2 and 2; enough cells", "nuclei per well, duplicate mean": 5740}
{"gene": "THUMPD2 (THUMP domain 2 tRNA and snRNA guanosine methyltransferase)", "reagent no.": 1, "migration robust z-score": -0.83, "migration class with cell-count check": "migration z between -2 and 2; enough cells", "nuclei per well, duplicate mean": 3935}
{"gene": "CIB3 (calcium and integrin binding family member 3)", "reagent no.": 1, "migration robust z-score": 0.24, "migration class with cell-count check": "migration z between -2 and 2; enough cells", "nuclei per well, duplicate mean": 5824}
{"gene": "LCE3C (late cornified envelope 3C)", "reagent no.": 1, "migration robust z-score": -0.98, "migration class with cell-count check": "migration z between -2 and 2; enough cells", "nuclei per well, duplicate mean": 4747}
